Reference: US5668265
Construct, isoform or probe ends are uncertain for at least one entry. The comparison behind a weaker result is the experiment's own reference, which may not be listed here.

Tested on: alpha-thrombin (Homo sapiens)
Experiment: binding assay
Conditions: single copy does not have high affinity for thrombin; thrombin species and method not stated; purified native protein; protein details: human alpha thrombin; single-stranded DNA; variant of Compound 10 (consensus thrombin aptamer)

Q: Does GGTTGGT [single copy of SEQ ID NO:1] bind?
A: binds more weakly
